# Assay results reported in the supplement of paper PMC8728848.
# The list shows a part of the results.
# Columns and labels:
# Experiment in all cases: glycan array binding signal (z-score within array); higher = stronger binding
# Conditions in all cases: glycan notation: IUPAC condensed, linker removed
# Fuc(a1-2)Gal = molecular target: Fuc(a1-2)Gal
# How it was run: (§1)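 Arrays were curated from the Consortium for Functional Glycomics database, 3228 in total, and kept only where the protein sequence was available. Binding is expressed as a within-array Z-score. This score was averaged across arrays of the same protein sequence at different concentrations or buffers and across linkers, and negative values can be read as non-binding.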
# Fuc(a1-2)Gal(b1-3)GalNAc = molecular target: Fuc(a1-2)Gal(b1-3)GalNAc
# How it was run: as §1
# [1] = molecular target: Fuc(a1-2)Gal(b1-3)GalNAc(b1-3)Gal
# How it was run: as §1
# [2] = molecular target: Fuc(a1-2)Gal(b1-3)GalNAc(b1-3)Gal(a1-4)Gal(b1-4)Glc
# How it was run: as §1
# [3] = molecular target: Fuc(a1-2)Gal(b1-3)GalNAc(b1-4)[Neu5Ac(a2-3)]Gal(b1-4)Glc
# How it was run: as §1
# Fuc(a1-2)Gal(b1-3)GlcNAc = molecular target: Fuc(a1-2)Gal(b1-3)GlcNAc
# How it was run: as §1
# [4] = molecular target: Fuc(a1-2)Gal(b1-3)GlcNAc(b1-3)Gal(b1-4)Glc
# How it was run: as §1
# [5] = molecular target: Fuc(a1-2)Gal(b1-3)[Fuc(a1-4)]GlcNAc
# How it was run: as §1
# Fuc(a1-2)Gal(b1-4)Glc = molecular target: Fuc(a1-2)Gal(b1-4)Glc
# How it was run: as §1
# Fuc(a1-2)Gal(b1-4)Glc6S = molecular target: Fuc(a1-2)Gal(b1-4)Glc6S
# How it was run: as §1
# Fuc(a1-2)Gal(b1-4)GlcNAc = molecular target: Fuc(a1-2)Gal(b1-4)GlcNAc
# How it was run: as §1
# [6] = molecular target: Fuc(a1-2)Gal(b1-4)GlcNAc(b1-3)Gal(b1-4)GlcNAc
# How it was run: as §1
# [7] = molecular target: Fuc(a1-2)Gal(b1-4)GlcNAc(b1-3)Gal(b1-4)GlcNAc(b1-3)Gal(b1-4)GlcNAc
# How it was run: as §1
# [8] = molecular target: Fuc(a1-2)Gal(b1-4)GlcNAc6S
# How it was run: as §1
# [9] = molecular target: Fuc(a1-2)Gal(b1-4)[Fuc(a1-3)]GlcNAc
# How it was run: as §1
# [10] = molecular target: Fuc(a1-2)Gal(b1-4)[Fuc(a1-3)]GlcNAc(b1-3)Gal(b1-4)[Fuc(a1-3)]GlcNAc
# How it was run: as §1
# [11] = molecular target: Fuc(a1-2)Gal(b1-4)[Fuc(a1-3)]GlcNAc(b1-3)Gal(b1-4)[Fuc(a1-3)]GlcNAc(b1-3)Gal(b1-4)[Fuc(a1-3)]GlcNAc
# How it was run: as §1
# Fuc(a1-2)Gal6S(b1-4)Glc = molecular target: Fuc(a1-2)Gal6S(b1-4)Glc
# How it was run: as §1
# [12] = molecular target: Fuc(a1-2)Gal6S(b1-4)Glc6S
# How it was run: as §1
# [13] = molecular target: Fuc(a1-2)Gal6S(b1-4)GlcNAc
# How it was run: as §1
# Fuc(a1-2)[Gal(a1-3)]Gal = molecular target: Fuc(a1-2)[Gal(a1-3)]Gal
# How it was run: as §1
# [14] = molecular target: Fuc(a1-2)[Gal(a1-3)]Gal(b1-3)GlcNAc
# How it was run: as §1
# [15] = molecular target: Fuc(a1-2)[Gal(a1-3)]Gal(b1-4)Glc
# How it was run: as §1
# [16] = molecular target: Fuc(a1-2)[Gal(a1-3)]Gal(b1-4)GlcNAc
# How it was run: as §1
# [17] = molecular target: Fuc(a1-2)[Gal(a1-3)]Gal(b1-4)[Fuc(a1-3)]GlcNAc
# How it was run: as §1
# [18] = molecular target: Fuc(a1-2)[Gal(a1-4)]Gal(b1-4)GlcNAc
# How it was run: as §1
# [19] = molecular target: Fuc(a1-2)[GalNAc(a1-3)]Gal
# How it was run: as §1
# [20] = molecular target: Fuc(a1-2)[GalNAc(a1-3)]Gal(b1-3)GlcNAc
# How it was run: as §1
# [21] = molecular target: Fuc(a1-2)[GalNAc(a1-3)]Gal(b1-4)Glc
# How it was run: as §1
# [22] = molecular target: Fuc(a1-2)[GalNAc(a1-3)]Gal(b1-4)GlcNAc
# How it was run: as §1
binder,measurement,setting,value
Fap1 (Streptococcus parasanguis) (protein) KATSKGTEEKQDSVRENLDKMISEAEVLNDMAARKLITLDAEQQLELMKSLVATQSQLEATKNLIGDPNATVADLQIAYTTLGNNTQALGNELIKLNPNGQIYAVLNNTEASRAATLRSTTTGTKTTFTISDFSNGGTQYYWAGGNANNLKNPISSISAVYDSATGKISWTVEYDPTTILKSPALKTLKTYTGIYIDTSSDSKLSTPTNVLIDGAATNPVTNFYGNGSKGIEYVSKGTTKGVTKHTITFDTAFSGRANDLADLEIKMLAATTLSDPHFYEDGSKGNYGRYNGQTAPYVIANDSGTAIGGYQVSGVNADSIPSDTT,glycan array binding signal (z-score),Fuc(a1-2)Gal,1.54
same,glycan array binding signal (z-score),Fuc(a1-2)Gal(b1-3)GalNAc,0.394
same,glycan array binding signal (z-score),[1],-0.07
same,glycan array binding signal (z-score),[2],0.162
same,glycan array binding signal (z-score),[3],-0.038
same,glycan array binding signal (z-score),Fuc(a1-2)Gal(b1-3)GlcNAc,0.203
same,glycan array binding signal (z-score),[4],-0.516
same,glycan array binding signal (z-score),[5],0.236
same,glycan array binding signal (z-score),Fuc(a1-2)Gal(b1-4)Glc,0.753
same,glycan array binding signal (z-score),Fuc(a1-2)Gal(b1-4)Glc6S,-0.286
same,glycan array binding signal (z-score),Fuc(a1-2)Gal(b1-4)GlcNAc,0.336
same,glycan array binding signal (z-score),[6],-0.39
same,glycan array binding signal (z-score),[7],-0.254
same,glycan array binding signal (z-score),[8],-0.989
same,glycan array binding signal (z-score),[9],0.342
same,glycan array binding signal (z-score),[10],0.38
same,glycan array binding signal (z-score),[11],0.221
same,glycan array binding signal (z-score),Fuc(a1-2)Gal6S(b1-4)Glc,-0.648
same,glycan array binding signal (z-score),[12],0.31
same,glycan array binding signal (z-score),[13],-0.797
same,glycan array binding signal (z-score),Fuc(a1-2)[Gal(a1-3)]Gal,0.463
same,glycan array binding signal (z-score),[14],0.099
same,glycan array binding signal (z-score),[15],0.408
same,glycan array binding signal (z-score),[16],-0.08
same,glycan array binding signal (z-score),[17],0.019
same,glycan array binding signal (z-score),[18],0.102
same,glycan array binding signal (z-score),[19],-0.023
same,glycan array binding signal (z-score),[20],0.03
same,glycan array binding signal (z-score),[21],-0.579
same,glycan array binding signal (z-score),[22],0.226
